These are yes or no findings as the source states them, for the method shown. In cells and extracts the contact can be indirect. A result given as binding can be weak or reduced; the word gives no strength.
What was measured:
[1] = target: GFP-C(151–191), EGFP-fused HCV core protein deletion derivative (Hepatitis C virus (genotype and isolate not stated)); assay: co-IP; Huh7 cells transiently expressing GFP-fused core proteins; co-immunoprecipitation with endogenous GLD-2 (Fig 6F); precipitating antibody not told
[2] = target: Flag epitope-tagged full-length HCV core protein (Hepatitis C virus (genotype and isolate not stated)); assay: co-IP; Huh7 cells transfected with Flag-tagged core; lysates (1% Triton X-100, 100 mM Tris-HCl pH 8.0, 150 mM NaCl) immunoprecipitated with anti-Flag-M2 affinity resin (1 h, 4°C, with 2 μg/ml RNaseA) or anti-GLD-2 antibody, then immunoblotting

B1: GLD-2, non-canonical cytoplasmic poly(A) polymerase (enzyme, UniProt Q6PIY7 1-484)
chain: MFPNSILGRPPFTPNHQQHNNFFTLSPTVYSHQQLIDAQFNFQNADLSRAVSLQQLTYGNVSPIQTSASPLFRGRKRLSDEKNLPLDGKRQRFHSPHQEPTVVNQIVPLSGERRYSMPPLFHTHYVPDIVRCVPPFREIAFLEPREITLPEAKDKLSQQILELFETCQQQISDLKKKELCRTQLQREIQLLFPQSRLFLVGSSLNGFGTRSSDGDLCLVVKEEPCFFQVNQKTEARHILTLVHKHFCTRLSGYIERPQLIRAKVPIVKFRDKVSCVEFDLNVNNIVGIRNTFLLRTYAYLENRVRPLVLVIKKWASHHQINDASRGTLSSYSLVLMVLHYLQTLPEPILPSLQKIYPESFSPAIQLHLVHQAPCNVPPYLSKNESNLGDLLLGFLKYYATEFDWNSQMISVREAKAIPRPDGIEWRNKYICVEEPFDGTNTARAVHEKQKFDMIKDQFLKSWHRLKNKRDLNSILPVRAAVLKR
How did the binding [1] turn out when B1 was run?
The binding was “binds”.

And the binding [2]?
The binding was “binds”.
